# Source: PMC7188298
# No constants are given. Whether binding was seen depends on the method and setting. Binding seen in cells or lysates may run through a third protein. Tags and fused reporters may be left off the sequences shown.
# B1: VDAG_03019-YFP^C (protein, UniProt G2WZZ6 1-204)
# chain: MSDSPQSASKDVDQGVPSPDEEGQMNDPQDPHSGGLTYEFEVKEQDRWLPIANVARIMKNALPENAKIAKEAKECMQECVSEFISFITSEASEKCHQEKRKTVNGEDILFAMTSLGFENYAEALKIYLSKYREQQSQTNRGEGGQGARPNSAYGGQPPTGAGSFQAEASGNILGAQPGEGGADASNYMYPPQSGHNGAGAGEGY
# Target: VdDpb4-YFP^N (Verticillium dahliae)
# Assay: split reporter; YFP^N and YFP^C (Venus fragment) fusions cotransformed into V. dahliae V592; colonies on PDA medium for 3 days; fluorescence microscopy
binder,measurement,value
B1,binding,no binding
